Experimental data: the supplement of paper PMC10849652
The other results are listed elsewhere or left out. Residues, ends and D or L forms follow the SMILES beside them. *: point of attachment. Cbz = O=C(OCc1ccccc1)*

The chains behind the UniProt entries cited, without tags or fusion partners. Where a name states a change or a piece, a line headed by the entry shows the natural chain unless it says otherwise.
UniProt Q9NRP4: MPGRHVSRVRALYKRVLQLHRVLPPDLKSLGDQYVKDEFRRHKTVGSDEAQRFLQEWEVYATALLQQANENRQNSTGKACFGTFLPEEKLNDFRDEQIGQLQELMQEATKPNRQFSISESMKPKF
UniProt P55735: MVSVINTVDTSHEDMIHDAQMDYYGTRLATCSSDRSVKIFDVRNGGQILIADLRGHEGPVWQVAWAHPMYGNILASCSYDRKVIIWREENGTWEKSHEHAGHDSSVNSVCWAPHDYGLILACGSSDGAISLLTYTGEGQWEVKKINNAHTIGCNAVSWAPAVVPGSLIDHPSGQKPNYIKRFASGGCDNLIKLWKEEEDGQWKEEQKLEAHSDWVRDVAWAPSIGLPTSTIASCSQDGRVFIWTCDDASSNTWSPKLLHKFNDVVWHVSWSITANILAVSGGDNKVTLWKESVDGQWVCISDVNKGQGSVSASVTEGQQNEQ
UniProt O95248: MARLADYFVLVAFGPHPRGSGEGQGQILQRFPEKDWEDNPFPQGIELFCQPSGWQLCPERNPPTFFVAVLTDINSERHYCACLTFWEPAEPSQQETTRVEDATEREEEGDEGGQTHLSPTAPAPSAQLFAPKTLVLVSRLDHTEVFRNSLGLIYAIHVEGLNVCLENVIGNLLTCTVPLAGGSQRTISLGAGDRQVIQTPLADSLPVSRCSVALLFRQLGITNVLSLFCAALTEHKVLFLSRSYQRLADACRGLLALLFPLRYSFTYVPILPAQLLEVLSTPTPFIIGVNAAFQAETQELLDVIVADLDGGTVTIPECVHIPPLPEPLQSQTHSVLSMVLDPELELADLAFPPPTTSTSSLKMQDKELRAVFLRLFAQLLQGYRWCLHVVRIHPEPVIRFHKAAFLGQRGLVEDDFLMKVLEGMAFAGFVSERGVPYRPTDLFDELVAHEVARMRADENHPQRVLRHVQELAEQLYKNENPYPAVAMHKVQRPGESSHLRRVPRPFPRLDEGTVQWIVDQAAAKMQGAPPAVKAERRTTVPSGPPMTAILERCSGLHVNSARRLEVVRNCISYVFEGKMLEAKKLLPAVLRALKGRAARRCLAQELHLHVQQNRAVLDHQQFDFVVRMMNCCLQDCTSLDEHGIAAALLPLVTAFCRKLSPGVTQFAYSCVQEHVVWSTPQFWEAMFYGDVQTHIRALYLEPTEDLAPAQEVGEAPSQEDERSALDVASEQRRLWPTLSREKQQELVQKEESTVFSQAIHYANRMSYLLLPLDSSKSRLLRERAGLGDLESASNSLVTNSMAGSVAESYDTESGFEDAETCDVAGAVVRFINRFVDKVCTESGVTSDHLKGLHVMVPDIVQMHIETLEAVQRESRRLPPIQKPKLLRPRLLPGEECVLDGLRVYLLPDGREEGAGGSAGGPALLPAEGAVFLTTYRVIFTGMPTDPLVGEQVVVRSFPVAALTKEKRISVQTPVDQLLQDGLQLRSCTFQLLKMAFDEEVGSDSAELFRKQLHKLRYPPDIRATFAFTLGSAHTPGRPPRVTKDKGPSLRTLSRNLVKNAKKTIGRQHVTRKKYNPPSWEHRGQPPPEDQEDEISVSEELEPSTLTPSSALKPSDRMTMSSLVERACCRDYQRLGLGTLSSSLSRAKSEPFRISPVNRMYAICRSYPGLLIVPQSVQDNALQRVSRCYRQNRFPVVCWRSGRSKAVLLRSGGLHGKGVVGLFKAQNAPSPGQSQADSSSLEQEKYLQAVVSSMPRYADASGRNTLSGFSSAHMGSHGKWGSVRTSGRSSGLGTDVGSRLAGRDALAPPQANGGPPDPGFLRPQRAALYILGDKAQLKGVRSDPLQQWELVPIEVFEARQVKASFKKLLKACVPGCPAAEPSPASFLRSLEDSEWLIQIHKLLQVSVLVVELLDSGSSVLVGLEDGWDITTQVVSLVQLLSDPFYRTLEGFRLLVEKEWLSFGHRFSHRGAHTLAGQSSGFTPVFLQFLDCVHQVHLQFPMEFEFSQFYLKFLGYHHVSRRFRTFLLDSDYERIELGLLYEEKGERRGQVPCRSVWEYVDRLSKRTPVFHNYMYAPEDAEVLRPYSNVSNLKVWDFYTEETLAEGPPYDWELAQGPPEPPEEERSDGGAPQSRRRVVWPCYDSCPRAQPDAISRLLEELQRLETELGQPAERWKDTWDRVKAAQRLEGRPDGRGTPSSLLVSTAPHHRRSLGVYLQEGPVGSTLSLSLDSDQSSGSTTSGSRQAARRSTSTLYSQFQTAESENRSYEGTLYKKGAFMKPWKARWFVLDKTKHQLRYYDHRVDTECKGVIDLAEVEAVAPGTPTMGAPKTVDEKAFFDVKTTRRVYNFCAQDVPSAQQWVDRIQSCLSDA
UniProt Q96BU1: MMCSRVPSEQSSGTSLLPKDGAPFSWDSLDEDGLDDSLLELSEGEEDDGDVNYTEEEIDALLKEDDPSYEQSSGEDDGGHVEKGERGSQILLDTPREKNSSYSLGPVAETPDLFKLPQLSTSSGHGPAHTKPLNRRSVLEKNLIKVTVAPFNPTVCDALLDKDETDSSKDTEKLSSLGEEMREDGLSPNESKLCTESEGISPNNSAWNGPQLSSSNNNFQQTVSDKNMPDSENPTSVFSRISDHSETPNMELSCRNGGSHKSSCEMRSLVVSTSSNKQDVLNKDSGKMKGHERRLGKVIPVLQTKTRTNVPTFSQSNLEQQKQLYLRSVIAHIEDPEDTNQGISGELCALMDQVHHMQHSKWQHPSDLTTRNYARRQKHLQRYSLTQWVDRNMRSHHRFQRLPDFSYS
UniProt Q9Y3I0: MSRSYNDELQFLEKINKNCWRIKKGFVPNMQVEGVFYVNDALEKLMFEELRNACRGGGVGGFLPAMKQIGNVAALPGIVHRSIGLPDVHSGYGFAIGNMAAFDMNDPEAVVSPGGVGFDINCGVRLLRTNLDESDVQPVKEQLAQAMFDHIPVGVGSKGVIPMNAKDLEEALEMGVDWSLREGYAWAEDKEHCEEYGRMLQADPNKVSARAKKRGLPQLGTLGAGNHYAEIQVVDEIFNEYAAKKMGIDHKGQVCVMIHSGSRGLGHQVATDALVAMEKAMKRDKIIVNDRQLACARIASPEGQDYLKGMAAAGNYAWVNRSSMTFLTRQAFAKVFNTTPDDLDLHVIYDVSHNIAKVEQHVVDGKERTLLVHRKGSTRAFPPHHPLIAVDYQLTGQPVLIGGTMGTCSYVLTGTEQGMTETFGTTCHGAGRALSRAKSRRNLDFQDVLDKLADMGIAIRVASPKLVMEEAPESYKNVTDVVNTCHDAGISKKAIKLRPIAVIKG
UniProt Q9UBE0: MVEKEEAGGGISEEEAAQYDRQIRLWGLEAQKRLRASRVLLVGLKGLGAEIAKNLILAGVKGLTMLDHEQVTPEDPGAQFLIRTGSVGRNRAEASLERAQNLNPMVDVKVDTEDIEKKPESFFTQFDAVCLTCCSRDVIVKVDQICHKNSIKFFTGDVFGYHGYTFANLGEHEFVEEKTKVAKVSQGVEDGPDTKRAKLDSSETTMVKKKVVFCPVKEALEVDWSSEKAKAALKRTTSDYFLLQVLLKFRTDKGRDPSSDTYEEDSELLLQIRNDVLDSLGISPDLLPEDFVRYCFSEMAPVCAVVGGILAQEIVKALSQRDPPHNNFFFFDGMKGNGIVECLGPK
UniProt Q9Y6U3: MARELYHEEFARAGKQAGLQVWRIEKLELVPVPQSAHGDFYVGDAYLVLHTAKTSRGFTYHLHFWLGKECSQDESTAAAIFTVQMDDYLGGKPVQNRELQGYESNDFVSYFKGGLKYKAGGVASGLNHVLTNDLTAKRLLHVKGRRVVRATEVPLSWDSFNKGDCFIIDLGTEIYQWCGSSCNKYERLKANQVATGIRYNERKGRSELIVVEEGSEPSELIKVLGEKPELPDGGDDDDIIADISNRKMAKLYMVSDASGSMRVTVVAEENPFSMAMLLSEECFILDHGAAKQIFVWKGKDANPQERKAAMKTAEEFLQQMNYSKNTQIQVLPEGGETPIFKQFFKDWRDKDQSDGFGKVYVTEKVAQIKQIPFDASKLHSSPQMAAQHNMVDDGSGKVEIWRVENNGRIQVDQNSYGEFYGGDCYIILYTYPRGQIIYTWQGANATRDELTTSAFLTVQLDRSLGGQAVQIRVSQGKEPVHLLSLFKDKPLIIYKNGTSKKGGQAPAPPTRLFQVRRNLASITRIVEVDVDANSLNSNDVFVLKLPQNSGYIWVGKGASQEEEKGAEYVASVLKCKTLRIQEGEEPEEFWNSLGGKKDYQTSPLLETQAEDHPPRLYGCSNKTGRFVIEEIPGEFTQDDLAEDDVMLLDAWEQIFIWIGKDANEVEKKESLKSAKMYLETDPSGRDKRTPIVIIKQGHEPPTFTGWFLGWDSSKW
UniProt A3KN83: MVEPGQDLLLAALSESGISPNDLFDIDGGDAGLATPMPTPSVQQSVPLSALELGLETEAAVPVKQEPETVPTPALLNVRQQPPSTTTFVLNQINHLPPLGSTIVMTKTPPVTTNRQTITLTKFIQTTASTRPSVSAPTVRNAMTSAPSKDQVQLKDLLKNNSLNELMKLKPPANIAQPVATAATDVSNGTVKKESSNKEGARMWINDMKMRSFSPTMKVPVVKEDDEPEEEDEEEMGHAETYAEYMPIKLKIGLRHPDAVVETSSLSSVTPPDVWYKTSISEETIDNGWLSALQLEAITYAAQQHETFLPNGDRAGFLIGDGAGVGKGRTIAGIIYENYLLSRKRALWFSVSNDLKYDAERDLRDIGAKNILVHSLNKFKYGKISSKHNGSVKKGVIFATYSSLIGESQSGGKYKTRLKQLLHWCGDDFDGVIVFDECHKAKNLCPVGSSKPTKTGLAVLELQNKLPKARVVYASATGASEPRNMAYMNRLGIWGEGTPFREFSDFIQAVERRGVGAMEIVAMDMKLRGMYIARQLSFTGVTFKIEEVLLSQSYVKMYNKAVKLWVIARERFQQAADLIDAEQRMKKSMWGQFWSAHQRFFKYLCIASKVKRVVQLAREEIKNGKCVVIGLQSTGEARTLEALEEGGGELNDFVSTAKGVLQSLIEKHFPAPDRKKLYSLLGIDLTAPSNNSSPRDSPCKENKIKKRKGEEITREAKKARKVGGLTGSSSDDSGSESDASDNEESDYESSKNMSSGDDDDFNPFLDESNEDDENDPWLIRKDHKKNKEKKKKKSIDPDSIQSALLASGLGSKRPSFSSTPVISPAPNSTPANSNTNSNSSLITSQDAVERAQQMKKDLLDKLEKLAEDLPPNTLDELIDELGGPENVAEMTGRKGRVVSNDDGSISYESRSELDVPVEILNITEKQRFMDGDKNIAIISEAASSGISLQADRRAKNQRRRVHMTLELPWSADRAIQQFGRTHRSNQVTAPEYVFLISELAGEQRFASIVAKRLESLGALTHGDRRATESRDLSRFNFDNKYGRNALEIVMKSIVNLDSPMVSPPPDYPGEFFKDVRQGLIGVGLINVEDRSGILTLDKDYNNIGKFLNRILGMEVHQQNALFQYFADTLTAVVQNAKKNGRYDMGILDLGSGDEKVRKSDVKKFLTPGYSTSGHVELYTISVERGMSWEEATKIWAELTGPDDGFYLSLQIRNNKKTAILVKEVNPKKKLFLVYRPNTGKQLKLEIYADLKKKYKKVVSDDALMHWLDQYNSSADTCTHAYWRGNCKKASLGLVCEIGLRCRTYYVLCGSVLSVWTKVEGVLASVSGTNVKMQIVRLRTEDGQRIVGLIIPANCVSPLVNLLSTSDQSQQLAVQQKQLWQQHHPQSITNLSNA
UniProt Q9Y3A4: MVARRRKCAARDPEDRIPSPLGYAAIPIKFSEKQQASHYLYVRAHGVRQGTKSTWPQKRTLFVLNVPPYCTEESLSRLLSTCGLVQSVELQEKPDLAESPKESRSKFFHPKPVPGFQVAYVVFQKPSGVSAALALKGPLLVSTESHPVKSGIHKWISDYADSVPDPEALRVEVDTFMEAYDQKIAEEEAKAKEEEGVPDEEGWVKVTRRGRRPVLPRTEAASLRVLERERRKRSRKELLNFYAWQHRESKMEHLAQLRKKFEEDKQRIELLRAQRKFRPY
UniProt Q96GA7: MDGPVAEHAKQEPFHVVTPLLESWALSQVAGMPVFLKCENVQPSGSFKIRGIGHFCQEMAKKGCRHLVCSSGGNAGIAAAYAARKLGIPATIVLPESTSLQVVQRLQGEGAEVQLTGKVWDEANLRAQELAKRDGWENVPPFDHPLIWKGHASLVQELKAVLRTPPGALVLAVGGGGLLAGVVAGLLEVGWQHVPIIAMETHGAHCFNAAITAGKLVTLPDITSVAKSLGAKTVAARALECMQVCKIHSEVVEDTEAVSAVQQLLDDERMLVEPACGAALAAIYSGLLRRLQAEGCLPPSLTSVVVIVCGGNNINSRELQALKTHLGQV

How the values were obtained:
Experiment in all cases: log2 fold change, soluble protein after heating vs DMSO (PISA); higher = thermal stabilisation; K562 cells, 10 uM, 30 min; active = over 0.2 and 3.5 SD of the protein, either way, in both replicates (recomputed)
IRAK-1-4 Inhibitor I = compound: C1COCCN1CCN2C3=CC=CC=C3N=C2NC(=O)C4=CC(=CC=C4)[N+](=O)[O-] [IRAK-1-4 Inhibitor I]
Method in brief: (§1)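 Thermal stability values are relative to control samples and come from duplicates. They are expressed as log2 fold changes. For measurement, K562 cells (2×10^6 cells/mL) received 10 μM compound for 30 min, and aliquots were heated for 3 min over 48°C-58°C, pooled, and extracted at 4°C in PBS with 0.5% NP-40. Soluble protein, the supernatant after 21,000xg for 90 min, was quantified by TMTpro 16plex LC-MS/MS with equalised channel sums.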

ibrutinib = compound: C=CC(=O)N1CCC[C@@H](n2nc(-c3ccc(Oc4ccccc4)cc3)c3c(N)ncnc32)C1 [ibrutinib]
Method in brief: as §1

[1] = compound: CC(=O)c1cnc2ccc(-c3cc(Cl)c(O)c(Cl)c3)nc2c1N[C@H]1CC[C@H](CN(C)C)CC1
Method in brief: as §1

ralimetinib = compound: CC(C)(C)Cn1c(N)nc2ccc(-c3[nH]c(C(C)(C)C)nc3-c3ccc(F)cc3)nc21 [ralimetinib]
Method in brief: as §1

[2] = compound: CC(C)(O)CC(=O)NCCn1ccc2ncnc(Nc3ccc(Oc4cccc(C(F)(F)F)c4)c(Cl)c3)c21
Method in brief: as §1

[3] = compound: CC(C)C1=C2N=C(C=C(N2N=C1)NCC3=CC=CC=C3)NCCCCCCN
Method in brief: as §1

[4] = compound: CC(C)C[C@@H](C=O)NC(=O)[C@H](CC(C)C)NC(=O)[C@H](CC(C)C)NC(=O)OCc1ccccc1
Method in brief: as §1

pinometostat = compound: CC(C)N(C[C@H]1O[C@@H](n2cnc3c(N)ncnc32)[C@H](O)[C@@H]1O)[C@H]1C[C@@H](CCc2nc3cc(C(C)(C)C)ccc3[nH]2)C1 [pinometostat]
Method in brief: as §1

[5] = compound: CC1=C(C(CC(=O)N1)C2=CC=C(C=C2)C(F)(F)F)C(=O)NC3=C(C=C4C(=C3)C=NN4)F
Method in brief: as §1

[6] = compound: CC1=C(C2=C(C=C1)C(=O)C3=CC=CC=C3N2CCCN)C
Method in brief: as §1

[7] = compound: CC1=C(C=C(C=C1)NC(=O)C2=CC(=CC=C2)C(C)(C)C#N)NC3=CC4=C(C=C3)N=CN(C4=O)C
Method in brief: as §1

[8] = compound: CC1=C(C=C(C=C1)NC(=O)C2=CC(=CC=C2)N(C)C)NC(=O)C3=CC=C(C=C3)O
Method in brief: as §1

[9] = compound: CC1=CC=C(C=C1)SC2=C3C=C(SC3=CN=C2)C(=O)N
Method in brief: as §1

[10] = compound: CC1=NC(=CC=C1)C2=C(N=C(N2)C(C)(C)C)C3=CC4=NC=CN=C4C=C3
Method in brief: as §1

Nexturastat A = compound: CCCCN(Cc1ccc(C(=O)NO)cc1)C(=O)Nc1ccccc1 [Nexturastat A]
Method in brief: as §1

vemurafenib = compound: CCCS(=O)(=O)Nc1ccc(F)c(C(=O)c2c[nH]c3ncc(-c4ccc(Cl)cc4)cc23)c1F [vemurafenib]
Method in brief: as §1

[11] = compound: CCCS(=O)(=O)Nc1ccc(F)c(C(=O)c2c[nH]c3ncc(Cl)cc23)c1F
Method in brief: as §1

[12] = compound: CCCc1cc(C)[nH]c(=O)c1CNC(=O)c1cc(-c2ccnc(N3CCN(C)CC3)c2)cc2c1cnn2C(C)C
Method in brief: as §1

givinostat = compound: CCN(CC)Cc1ccc2cc(COC(=O)Nc3ccc(C(=O)NO)cc3)ccc2c1 [givinostat]
Method in brief: as §1

barasertib = compound: CCN(CCCOc1ccc2c(Nc3cc(CC(=O)Nc4cccc(F)c4)[nH]n3)ncnc2c1)CCOP(=O)(O)O [barasertib]
Method in brief: as §1

Measured: log2 fold change

SDHAF3 (UniProt Q9NRP4)
inactive: IRAK-1-4 Inhibitor I 0.062 | ibrutinib -0.017 | [1] 0.003 | ralimetinib -0.063 | [2] -0.147 | [3] -0.214 | [4] -0.034 | pinometostat -0.008 | [5] -0.003 | [6] -0.048 | [7] 0.015 | [8] 0.036 | [9] 0.004 | [10] 0.043 | Nexturastat A -0.149 | vemurafenib 0.073 | [11] 0.015 | [12] -0.118 | givinostat -0.03 | barasertib 0.037

SEC13 isoform 3 (UniProt P55735)
inactive: IRAK-1-4 Inhibitor I -0.03 | ibrutinib -0.018 | [1] 0.007 | ralimetinib -0.033 | [2] 0.015 | [3] 0.005 | [4] -0.006 | pinometostat 0.013 | [5] 0.08 | [6] 0.011 | [7] -0.026 | [8] -0.02 | [9] -0.011 | [10] 0.006 | Nexturastat A -0.072 | vemurafenib 0.019 | [11] 0.035 | [12] 0.057 | givinostat 0.003 | barasertib 0.024

SACS (UniProt Q9NZJ4)
inactive: IRAK-1-4 Inhibitor I -0.006 | ibrutinib -0.124 | [1] 0.061 | ralimetinib -0.066 | [2] -0.037 | [3] -0.012 | [4] -0.069 | pinometostat -0.014 | [5] -0.027 | [6] 0.248 | [7] -0.103 | [8] -0.023 | [9] -0.102 | [10] -0.063 | Nexturastat A -0.045 | vemurafenib 0.14 | [11] -0.11 | [12] -0.11 | givinostat 0.015 | barasertib 0.27

RUVBL2 (UniProt Q9Y230)
inactive: IRAK-1-4 Inhibitor I 0.003 | ibrutinib 0.015 | [1] 0.063 | ralimetinib 0.002 | [2] 0.024 | [3] 0.128 | [4] -0.021 | pinometostat -0.025 | [5] -0.025 | [6] -0.011 | [7] 0.04 | [8] 0.024 | [9] -0.009 | [10] -0.013 | Nexturastat A -0.044 | vemurafenib 0.033 | [11] -0.021 | [12] -0.007 | givinostat -0.016 | barasertib -0.021

SBF1 isoform 4 (UniProt O95248)
inactive: IRAK-1-4 Inhibitor I -0.073 | ibrutinib 0.153 | [1] -0.111 | ralimetinib 0.069 | [2] 0.098 | [3] -0.049 | [4] 0.135 | pinometostat -0.017 | [5] 0.211 | [6] 0.14 | [7] -0.002 | [8] 0.094 | [9] -0.135 | [10] -0.08 | Nexturastat A 0.13 | vemurafenib -0.222 | [11] 0.009 | [12] -0.023 | givinostat 0.071 | barasertib -0.03

SEC24D isoform 2 (UniProt O94855)
inactive: IRAK-1-4 Inhibitor I -0.007 | ibrutinib -0.013 | [1] 0.033 | ralimetinib -0.013 | [2] -0.066 | [3] -0.016 | [4] -0.014 | pinometostat 0.024 | [5] 0.024 | [6] -0.008 | [7] 0.076 | [8] -0.032 | [9] 0.023 | [10] -0.024 | Nexturastat A -0.088 | vemurafenib 0.024 | [11] 0.032 | [12] -0.036 | givinostat -0.036 | barasertib 0.032

S100PBP (UniProt Q96BU1)
inactive: IRAK-1-4 Inhibitor I 0.085 | ibrutinib -0.082 | [1] 0.126 | ralimetinib 0.099 | [2] 0.092 | [3] 0.015 | [4] 0.113 | pinometostat -0.158 | [5] 0.055 | [6] -0.169 | [7] -0.097 | [8] -0.003 | [9] -0.147 | [10] -0.003 | Nexturastat A -0.06 | vemurafenib 0.125 | [11] 0.125 | [12] -0.064 | givinostat 0.021 | barasertib 0.104

RTCB (UniProt Q9Y3I0)
inactive: IRAK-1-4 Inhibitor I 0.003 | ibrutinib -0.004 | [1] 0.026 | ralimetinib 0.019 | [2] 0.004 | [3] -0.059 | [4] -0.002 | pinometostat 0.056 | [5] -0.01 | [6] -0.052 | [7] -0.011 | [8] 0.001 | [9] -0.015 | [10] -0.01 | Nexturastat A 0.028 | vemurafenib -0.006 | [11] 0.013 | [12] 0.01 | givinostat -0.019 | barasertib -0.009

SASS6 (UniProt Q6UVJ0)
inactive: IRAK-1-4 Inhibitor I 0.094 | ibrutinib 0.221 | [1] 0 | ralimetinib 0.113 | [2] 0 | [3] -0.198 | [4] 0.089 | pinometostat 0.028 | [5] -0.001 | [6] 0.174 | [7] -0.087 | [8] 0.015 | [9] -0.019 | [10] -0.073 | Nexturastat A 0.078 | vemurafenib 0.024 | [11] 0.069 | [12] 0.152 | givinostat 0.023 | barasertib 0.183

SAE1 (UniProt Q9UBE0)
inactive: IRAK-1-4 Inhibitor I 0.032 | ibrutinib -0.028 | [1] 0.015 | ralimetinib -0.065 | [2] -0.02 | [3] 0.015 | [4] -0.046 | pinometostat -0.045 | [5] 0.004 | [6] -0.014 | [7] 0.045 | [8] -0.026 | [9] -0.023 | [10] 0.022 | Nexturastat A -0.046 | vemurafenib 0.028 | [11] 0.036 | [12] -0.015 | givinostat -0.024 | barasertib 0.017

SCYL2 (UniProt Q6P3W7)
inactive: IRAK-1-4 Inhibitor I 0.003 | ibrutinib -0.021 | [1] -0.02 | ralimetinib -0.031 | [2] -0.029 | [3] -0.008 | [4] 0.004 | pinometostat 0.015 | [5] 0.003 | [6] 0.033 | [7] -0.039 | [8] -0.029 | [9] -0.004 | [10] 0.029 | Nexturastat A -0.031 | vemurafenib 0.023 | [11] 0.031 | [12] -0.047 | givinostat 0.053 | barasertib 0.013

SEC24C (UniProt P53992)
inactive: IRAK-1-4 Inhibitor I -0.048 | ibrutinib -0.049 | [1] -0.001 | ralimetinib -0.003 | [2] -0.095 | [3] -0.079 | [4] -0.036 | pinometostat -0.019 | [5] 0 | [6] 0.036 | [7] -0.01 | [8] -0.02 | [9] -0.002 | [10] 0.046 | Nexturastat A -0.036 | vemurafenib 0.051 | [11] 0.069 | [12] 0.036 | givinostat 0.028 | barasertib 0.006

SCIN (UniProt Q9Y6U3)
inactive: IRAK-1-4 Inhibitor I -0.053 | ibrutinib 0.026 | [1] 0.006 | ralimetinib 0.051 | [2] -0.061 | [3] -0.157 | [4] 0.036 | pinometostat 0.03 | [5] -0.11 | [6] -0.075 | [7] 0.061 | [8] -0.021 | [9] 0.059 | [10] -0.029 | Nexturastat A 0.054 | vemurafenib -0.076 | [11] 0.094 | [12] -0.018 | givinostat 0.043 | barasertib 0.047

SBNO1 (UniProt A3KN83)
inactive: IRAK-1-4 Inhibitor I 0.003 | ibrutinib -0.029 | [1] -0.003 | ralimetinib -0.03 | [2] -0.018 | [3] 0.071 | [4] 0.027 | pinometostat -0.007 | [5] -0.001 | [6] 0.047 | [7] -0.022 | [8] -0.024 | [9] -0.014 | [10] 0.033 | Nexturastat A -0.074 | vemurafenib 0.006 | [11] 0.023 | [12] -0.004 | givinostat -0.006 | barasertib 0.037

RRP7A (UniProt Q9Y3A4)
inactive: IRAK-1-4 Inhibitor I -0.028 | ibrutinib -0.084 | [1] 0.005 | ralimetinib 0.051 | [2] 0.025 | [3] 0.008 | [4] 0.024 | pinometostat 0.083 | [5] 0.087 | [6] 0.021 | [7] -0.03 | [8] -0.067 | [9] -0.157 | [10] 0.035 | Nexturastat A 0.313 | vemurafenib 0.072 | [11] -0.125 | [12] -0.039 | givinostat 0.092 | barasertib 0.014

SDSL (UniProt Q96GA7)
inactive: IRAK-1-4 Inhibitor I 0.049 | ibrutinib 0.043 | [1] 0.013 | ralimetinib -0.08 | [2] -0.015 | [3] 0.046 | [4] 0.008 | pinometostat -0.045 | [5] 0.006 | [6] 0.053 | [7] 0.014 | [8] -0.049 | [9] -0.035 | [10] -0.045 | Nexturastat A -0.06 | vemurafenib 0.034 | [11] -0.079 | [12] -0.018 | givinostat -0.007 | barasertib -0.004
